Results are given in words; binding and its absence hold for the method and conditions named. Binding seen in cells or lysates may run through a third protein. Some entries that bind do so weakly or less than the wild type.
Target: Flag-HA-tagged AGO1 (human) (UniProt Q9UL18)
Experiment: co-IP; anti-HA antibody on Protein-G Sepharose, FH-AGO1 or FH-EYFP precipitated from lysates (RIPA buffer: 50 mM Tris-HCl, 150 mM NaCl, 1% Triton X-100, 1 mM EDTA, pH 7.4) of unmodified or RanBP2-dE3 U2OS cells treated with 10 uM MG132 for 7 h; 2-3 h at 4 C; immunoblot for RanBP2

binding: binds
Substance: Ran-binding protein 2 (RanBP2) (from UniProt P49792 1-3224)

Reference: article PMC7924746
